Experimental data from publication PMC8839658, “Design and Activity of Novel Oxadiazole Based Compounds That Target Poly(ADP-ribose) Polymerase” (Molecules, 2022).

Tested on: MCF-7 cells
Assay: MCF-7 cell viability assay (Alamar Blue)
Assay type: cell-based
Conditions: Homo sapiens, MCF7, 72 h, MCF-7, 72 h
Protocol: Initially, the newly synthesized oxadiazoles were examined in cell viability studies in human breast cancer (MCF-7) cells using Alamar Blue assays.
MCF-7 and MDA-MB-231 (2000) cells were cultured in MEM or Leibovitz’s L-15 medium enriched with 2% FBS and maintained in a humidified atmosphere of 5% CO2 at 37 °C [44]. DMSO dissolved compounds were kept as a stock solution, and diluted with a cell culture medium to the desired concentration. Cancer cells (4 × 10^3) were grown overnight in 96-well plates, cultured, and treated with oxadiazoles or Olaparib at 0, 0.01, 0.1, 10, 100, and 1000 µM concentrations for 72 h. The inhibitory effect of the compounds was assessed using Alamar Blue reagent.
MCF-7 and MDA-MB-231 were treated with 5u, 5s and Olaparib (0, 0.01, 0.1, 1, 10, 100 µM) for 72 h, respectively. The viability of MCF-7 (A) and MDA-MB-231 cells (B) were analyzed using a microplate reader to measure the fluorescence of Alamar Blue reagent (excitation wavelength is between 530–560 nm and emission wavelength is 590 nm). The results are means of triplicate determinations.

CC/C(=C(\c1ccccc1)c1ccc(OCCN(C)C)cc1)c1ccccc1 [Tamoxifen, reference compound]
IC50: 1690 nM
